Data: PMC13388955
No constants are given. Whether binding was seen depends on the method and setting. In cells and extracts the contact can be indirect. Some results given as binding are weak or reduced against the parent protein; the word gives no strength. Tags and fused reporters may be left off the sequences shown.

Protein sequences, listed by entry. Tags and fused reporters are not part of them.
UniProt O75643: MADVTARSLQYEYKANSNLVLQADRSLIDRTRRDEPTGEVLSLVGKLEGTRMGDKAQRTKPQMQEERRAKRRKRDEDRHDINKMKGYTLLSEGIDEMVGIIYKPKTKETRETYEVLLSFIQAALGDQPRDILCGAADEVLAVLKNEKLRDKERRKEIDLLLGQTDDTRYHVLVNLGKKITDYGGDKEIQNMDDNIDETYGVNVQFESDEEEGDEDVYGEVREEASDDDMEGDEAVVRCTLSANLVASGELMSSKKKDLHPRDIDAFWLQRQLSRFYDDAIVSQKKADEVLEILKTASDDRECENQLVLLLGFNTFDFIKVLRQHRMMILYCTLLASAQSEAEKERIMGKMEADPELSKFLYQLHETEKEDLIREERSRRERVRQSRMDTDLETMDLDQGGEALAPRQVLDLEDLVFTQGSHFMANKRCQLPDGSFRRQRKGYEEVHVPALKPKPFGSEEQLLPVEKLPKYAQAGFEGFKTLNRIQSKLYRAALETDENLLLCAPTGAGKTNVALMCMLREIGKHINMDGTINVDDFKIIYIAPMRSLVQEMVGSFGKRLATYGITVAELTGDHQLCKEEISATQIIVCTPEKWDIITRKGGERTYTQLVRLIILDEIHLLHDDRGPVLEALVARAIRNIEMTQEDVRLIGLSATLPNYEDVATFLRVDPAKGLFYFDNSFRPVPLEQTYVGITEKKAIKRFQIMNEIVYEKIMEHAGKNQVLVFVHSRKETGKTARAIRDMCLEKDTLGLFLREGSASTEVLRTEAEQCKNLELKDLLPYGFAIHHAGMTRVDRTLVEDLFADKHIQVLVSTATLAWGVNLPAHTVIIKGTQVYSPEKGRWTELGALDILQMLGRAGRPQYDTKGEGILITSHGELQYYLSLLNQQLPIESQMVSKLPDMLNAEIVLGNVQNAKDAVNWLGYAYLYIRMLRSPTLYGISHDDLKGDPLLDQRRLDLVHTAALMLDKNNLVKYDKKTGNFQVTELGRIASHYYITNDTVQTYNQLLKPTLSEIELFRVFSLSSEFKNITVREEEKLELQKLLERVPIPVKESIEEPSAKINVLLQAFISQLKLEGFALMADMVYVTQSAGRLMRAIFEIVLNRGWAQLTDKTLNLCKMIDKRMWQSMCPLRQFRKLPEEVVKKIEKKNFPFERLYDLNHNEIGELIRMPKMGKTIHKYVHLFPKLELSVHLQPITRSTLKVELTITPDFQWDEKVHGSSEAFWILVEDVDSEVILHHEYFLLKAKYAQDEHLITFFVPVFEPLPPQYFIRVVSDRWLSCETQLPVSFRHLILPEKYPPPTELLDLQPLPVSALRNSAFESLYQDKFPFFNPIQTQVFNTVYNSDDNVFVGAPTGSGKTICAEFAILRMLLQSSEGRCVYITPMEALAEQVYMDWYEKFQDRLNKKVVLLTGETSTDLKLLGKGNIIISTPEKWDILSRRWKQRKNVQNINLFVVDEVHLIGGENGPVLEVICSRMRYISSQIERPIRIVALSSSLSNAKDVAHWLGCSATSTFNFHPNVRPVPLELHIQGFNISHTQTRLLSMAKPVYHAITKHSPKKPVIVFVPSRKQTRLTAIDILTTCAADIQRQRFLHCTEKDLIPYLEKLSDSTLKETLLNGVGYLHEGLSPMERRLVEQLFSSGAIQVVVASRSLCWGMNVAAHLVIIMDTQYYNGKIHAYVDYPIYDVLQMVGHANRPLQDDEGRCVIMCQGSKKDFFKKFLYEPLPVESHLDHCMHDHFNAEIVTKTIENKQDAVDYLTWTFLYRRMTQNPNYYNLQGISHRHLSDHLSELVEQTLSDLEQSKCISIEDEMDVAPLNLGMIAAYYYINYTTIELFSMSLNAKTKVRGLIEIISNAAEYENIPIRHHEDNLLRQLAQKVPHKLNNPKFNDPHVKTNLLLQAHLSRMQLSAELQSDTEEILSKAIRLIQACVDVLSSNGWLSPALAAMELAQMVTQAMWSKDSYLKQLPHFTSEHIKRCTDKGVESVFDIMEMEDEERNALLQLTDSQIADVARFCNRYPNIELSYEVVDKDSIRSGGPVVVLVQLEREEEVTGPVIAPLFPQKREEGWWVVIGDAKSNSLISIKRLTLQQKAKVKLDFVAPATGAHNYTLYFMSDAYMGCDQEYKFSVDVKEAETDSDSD

Target: T1, wildtype DNAJC17, FLAG-tagged (human) (UniProt Q9NVM6)
T1 sequence: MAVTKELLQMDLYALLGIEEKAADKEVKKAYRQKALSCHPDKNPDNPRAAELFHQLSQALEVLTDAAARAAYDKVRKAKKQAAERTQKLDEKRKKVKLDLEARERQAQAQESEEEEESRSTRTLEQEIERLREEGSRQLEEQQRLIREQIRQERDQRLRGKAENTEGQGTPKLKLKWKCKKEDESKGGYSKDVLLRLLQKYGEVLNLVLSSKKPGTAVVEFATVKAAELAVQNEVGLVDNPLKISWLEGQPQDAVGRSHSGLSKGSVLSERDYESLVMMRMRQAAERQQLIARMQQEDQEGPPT
Experiment: co-IP; magnetic anti-FLAG M2 beads with whole cell lysates in 50 mM TrisHCl pH 7.4, 150 mM NaCl, 0.05% NP-40, protease inhibitor, RNAse inhibitor; 90 min at 4 °C; washes with 300 mM and 150 mM NaCl; eluate analysed by SDS-PAGE

## U5 component SNRNP200 (from UniProt O75643 1-2136)
  binding: binds
